Results deposited as PubChem BioAssay AID1259327 (Drosophila RNAi Screening Center, 2017).

Purpose: 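Baseline ATP after transmembrane-protein gene knock-down with water vehicle only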
Cells: Drosophila S2R+ cells
Reagents: long dsRNA against Drosophila genes
Timing: 5 days (water added on day 4, read one day later)
Conditions: water added as vehicle, no metal, one day before read-out
Measured: 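Total ATP measured by luciferase light, scaled to plate mean, duplicates averaged, then z-scored across plates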
Direction: ATP z-score: higher = more total ATP than typical wells; ATP luminescence: higher = more total ATP
Hit rule: 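Called active when the ATP z-score exceeds 1.5 or falls below -1.5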
Calls: active = hit: ATP up or down; inactive = no clear ATP change
The whole screen tested about 3,100 reagents; shown is an unselected part. In the full data, 378 (12%) got an active call. 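Hits include both directions; z-score sign shows ATP rise or fall; raw luminescence values are not plate-normalised.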 A number with no mark means an inactive call. A plus sign joins genes that one reagent is predicted to hit. The record does not give: the amount of reagent.

target	amplicon	ATP z-score, duplicate mean	ATP luminescence, replicate 1 (RLU)	ATP luminescence, replicate 2 (RLU)
ClC-c	DRSC10499	-0.204	7.08e5	7.11e5
ClC-c	DRSC39779	-0.283	5.12e5	4.03e5
Gr68a	DRSC10803	0.755	1.03e6	9.63e5
Gr68a	DRSC39819	0.436	5.34e5	4.83e5
asRNA:CR43429 + Impbeta11	DRSC07525	-0.422	5.94e5	5.69e5
asRNA:CR43429 + Impbeta11	DRSC39687	-0.703	3.73e5	4.64e5
Lkr	DRSC09754	0.536	9.97e5	9.37e5
Lkr	DRSC39496	0.166	4.85e5	4.44e5
CG6845	DRSC08576	-0.391	7.18e5	6.59e5
CG6845	DRSC26319	0.0406	7.61e5	9.51e5
mth	DRSC08725	0.14	8.49e5	6.40e5
mth	DRSC39165	0.907	5.91e5	7.23e5
Nach	DRSC07478	-1.5 (active)	5.14e5	4.53e5
Nach	DRSC39863	-2.27 (active)	4.01e5	3.78e5
CG42818	DRSC01963	1.09	8.29e5	8.55e5
Duox	DRSC00571	-0.436	6.80e5	6.42e5
Duox	DRSC27209	0.497	1.07e6	1.20e6
CG8654	DRSC07231	0.981	8.51e5	8.20e5
CG31358 + CG42505 + CG42504	DRSC15235	-0.0246	7.38e5	6.69e5
CG31358 + CG42505 + CG42504	DRSC15308	0.188	7.35e5	7.56e5
CG31358 + CG42505 + CG42504	DRSC15309	0.142	3.39e5	6.91e5
stnA + stnB	DRSC20969	-0.179	7.26e5	6.89e5
stnA + stnB	DRSC21112	0.0145	7.46e5	7.42e5
stnA + stnB	DRSC21113	1.09	8.11e5	9.13e5
PlexA	DRSC17220	0.402	7.35e5	7.59e5

An excerpt from above, reduced to “ATP z-score, duplicate mean”:
Nach [DRSC39863]: -2.27 (active)
CG42818 [DRSC01963]: 1.09
Duox [DRSC00571]: -0.436
Duox [DRSC27209]: 0.497

Further records follow.
target	amplicon	ATP z-score, duplicate mean	ATP luminescence, replicate 1 (RLU)	ATP luminescence, replicate 2 (RLU)
Eaat1	DRSC03321	1.23	8.44e5	8.69e5
Eaat1	DRSC39607	0.339	5.13e5	4.63e5
CG1806	DRSC19787	0.729	7.48e5	8.13e5
tank	DRSC00461	-0.0505	7.30e5	7.11e5
TrpA1	DRSC10544	-0.256	9.06e5	8.21e5
RFeSP	DRSC00702	-3.07 (active)	3.96e5	3.82e5
RFeSP	DRSC27607	-2.79 (active)	4.45e5	5.08e5
COX6AL2 + Ir75d	DRSC10081	-0.629	8.46e5	7.82e5
COX6AL2 + Ir75d	DRSC39747	1.44	6.18e5	5.06e5
ihog	DRSC03157	0.724	4.91e5	5.71e5
ihog	DRSC29581	0.0292	1.01e6	6.64e5
CG3638	DRSC18533	-0.562	4.96e5	6.40e5
CG3638	DRSC25349	0.348	9.12e5	8.21e5
Vha100-3	DRSC05760	0.847	8.47e5	8.21e5
Vha100-3	DRSC39558	-0.152	4.87e5	4.22e5
Or23a	DRSC00767	-0.979	5.86e5	6.23e5
Or23a	DRSC39706	0.665	5.20e5	5.01e5
mthl5	DRSC16155	-0.49	2.29e5	8.31e5
mthl5	DRSC39532	-0.00574	4.52e5	4.53e5
Or94b	DRSC16773	1.39	3.49e5	9.43e5
Or94b	DRSC27188	1.93 (active)	8.77e5	1.19e6
